In PubChem BioAssay AID248 (DTP/NCI, 2004):
The list is a part of this screen's results and no random one: it is rich in T/C values a quarter to a half above the control, in often repeated tests (any T/C) and in doses without a T/C. Further doses and runs are listed elsewhere. T/C is the treated group as % of the vehicle group. Some entries give survivors of the animals treated and no T/C: the source files T/C as zero there, which appears to mark a toxic dose or a test without result, not a measured value. Some doses without a T/C left all or most animals alive at the check, yet need not have been tolerated: survival well below the control is almost never listed, so the zero probably covers shortened survival too. Survivors were counted at the toxicity check, usually on the fifth day, unless a day is given; later deaths do not show. Schedules are NCI's codes, read here as Q, the interval in days (D) or hours (H), X, the number of doses. Some entries hold several experiments; the values are given in rising order. For survival time, this PubChem deposit counts one and a half times the control or more as active, and values a quarter to a half above the control carry no call in these data; other NCI protocols may use other cut-offs. Some T/C values carry the count of animals alive at the toxicity check (mostly the fifth day); without a count, all were alive then.

Tested on: L1210 leukemia ip in BDF1 mice, survival T/C
Experiment: NCI In Vivo Anticancer Drug Screen. Data for tumor model L1210 Leukemia (intraperitoneal) in B6D2F1 (BDF1) mice
Details: T/C endpoint: mean survival time, higher T/C = longer survival
[1] = dose: 400.0 mg/kg/injection, schedule: Q04DX003 (ip), vehicle: Klucel (hydroxypropylcellulose) (HPC)
[2] = dose: 400.0 mg/kg/injection, schedule: Q01DX001 (ip), vehicle: saline
[3] = dose: 200.0 mg/kg/injection, schedule: Q01DX009 (ip), vehicle: saline with Tween-80
[4] = dose: 400.0 mg/kg/injection, schedule: Q01DX009 (ip), vehicle: carboxymethylcellulose (CMC)
[5] = dose: 400.0 mg/kg/injection, schedule: Q01DX009 (ip), vehicle: saline with Tween-80
[6] = dose: 100.0 mg/kg/injection, schedule: Q04DX003 (ip), vehicle: saline with Tween-80

O=C1N(Cl)C(=O)C(c2ccccc2)(c2ccc(F)cc2)N1Cl (stereo not given) was tested, and the survivor count (dose: 200.0 mg/kg/injection, schedule: Q01DX009 (ip), vehicle: Klucel (hydroxypropylcellulose) (HPC)) was 0 of 6 and the survivor count [1] was 2 of 6.

For CC(C)N(CCCOC(=O)c1ccc(N)cc1)C(C)C, the survivor count (dose: 200.0 mg/kg/injection, schedule: Q04DX003 (ip), vehicle: saline) was 4 of 6 and the survivor count (dose: 400.0 mg/kg/injection, schedule: Q04DX003 (ip), vehicle: saline) was 1 of 6.

COc1cc(-c2[o+]c3cc(O)cc(O)c3cc2OC2OC(CO)C(O)C(O)C2O)cc(OC)c1O (stereo not given) was tested, and the survivor count (dose: 200.0 mg/kg/injection, schedule: Q04DX003 (ip), vehicle: saline sonified) was 6 of 6 and the survivor count (dose: 400.0 mg/kg/injection, schedule: Q04DX003 (ip), vehicle: saline sonified) was 4 of 6.

C[n+]1c2ccccc2cc2ccc(N=[N+]=[N-])cc21 was tested, and the survivor count (dose: 35.0 mg/kg/injection, schedule: Q04DX003 (ip), vehicle: saline) was 3 of 6, the survivor count (dose: 50.0 mg/kg/injection, schedule: Q01DX001 (ip), vehicle: saline) was 0 of 6 and the survivor count (dose: 55.0 mg/kg/injection, schedule: Q01DX009 (ip), vehicle: saline) was 0 of 6. For the same compound, the survivor count (dose: 55.0 mg/kg/injection, schedule: Q04DX003 (ip), vehicle: saline) was 0 of 6, the survivor count (dose: 80.0 mg/kg/injection, schedule: Q01DX009 (ip), vehicle: saline) was 0 of 6 and the survivor count (dose: 80.0 mg/kg/injection, schedule: Q04DX003 (ip), vehicle: saline) was 0 of 6. The survivor count (dose: 100.0 mg/kg/injection, schedule: Q01DX001 (ip), vehicle: saline) was 1 of 6, the survivor count (dose: 200.0 mg/kg/injection, schedule: Q01DX001 (ip), vehicle: saline) was 0 of 6 and the survivor count [2] was 0 of 6.

With CCCc1c(Cl)nc(Cl)nc1Cl the survivor count (dose: 75.0 mg/kg/injection, schedule: Q01DX009 (ip), vehicle: acetone) was 3 of 6, the T/C (dose: 100.0 mg/kg/injection, schedule: Q04DX003 (ip), vehicle: acetone) was 131 % of control [5 of 6 alive] and the survivor count (dose: 150.0 mg/kg/injection, schedule: Q01DX009 (ip), vehicle: acetone) was 0 of 6. For the same compound, the survivor count (dose: 200.0 mg/kg/injection, schedule: Q04DX003 (ip), vehicle: acetone) was 1 of 6 and the survivor count (dose: 400.0 mg/kg/injection, schedule: Q04DX003 (ip), vehicle: acetone) was 0 of 6.

For CCC1CCC(N)CC1 (stereo not given), the survivor count (dose: 150.0 mg/kg/injection, schedule: Q01DX001 (ip), vehicle: saline) was 3 of 6 and the survivor count (dose: 300.0 mg/kg/injection, schedule: Q01DX001 (ip), vehicle: saline) was 0 of 6.

Cc1ccc(P(=O)(O)O)c([N+](=O)[O-])c1 was tested, and the survivor count [2] was 2 of 6.

For CN(C)c1ccc(/C=N/NC(=O)c2ccc(Cl)cc2)cc1, the survivor count [3] was 3 of 3.

For S=C=NCc1cccc2ccccc12, the survivor count (dose: 40.0 mg/kg/injection, schedule: Q01DX001 (ip), vehicle: carboxymethylcellulose (CMC)) was 2 of 6, the survivor count (dose: 75.0 mg/kg/injection, schedule: Q01DX001 (ip), vehicle: carboxymethylcellulose (CMC)) was 1 of 6 and the survivor count (dose: 150.0 mg/kg/injection, schedule: Q01DX001 (ip), vehicle: carboxymethylcellulose (CMC)) was 0 of 6. The survivor count (dose: 300.0 mg/kg/injection, schedule: Q01DX001 (ip), vehicle: carboxymethylcellulose (CMC)) was 0 of 6.

Clc1cccc(N=C/C=C/c2ccccc2)c1 was tested, and the survivor count [4] was 3 of 3.

With O=C(CBr)c1ccc(/C=C/c2ccc(Cl)cc2)cc1 the survivor count [3] was 2 of 6 and the survivor count [5] was 1 of 6.

CCCCCCCCCCCC(=O)NC(=S)Nc1cccc(Cl)c1 was tested, and the survivor count [5] was 4 of 6 and 3 of 3.

With OCC1OC(n2cc(Br)c3c2ncn2nnnc32)C(O)C1O (stereo not given) the survivor count (dose: 50.0 mg/kg/injection, schedule: Q01DX005 (ip), vehicle: saline) was 1 of 4, the survivor count (dose: 100.0 mg/kg/injection, schedule: Q01DX005 (ip), vehicle: saline) was 0 of 4 and the survivor count (dose: 200.0 mg/kg/injection, schedule: Q01DX005 (ip), vehicle: saline) was 0 of 4.

For CC(=O)Oc1ccc(N2CC=C(c3ccccc3)CC2)cc1, the survivor count (dose: 400.0 mg/kg/injection, schedule: Q04DX002 (ip), vehicle: Klucel (hydroxypropylcellulose) (HPC)) was 3 of 3.

With CC(=O)Nc1c([N+](=O)[O-])ccc(Cl)c1Cl the survivor count [1] was 0 of 6.

For COc1cc(OC)c(OC)cc1/C=C\c1ccc2ccccc2[n+]1C, the survivor count [6] was 2 of 6.

C=CC[n+]1ccccc1Br was tested, and the survivor count (dose: 250.0 mg/kg/injection, schedule: Q01DX015 (ip), vehicle: water) was 0 of 6 and the survivor count (dose: 500.0 mg/kg/injection, schedule: Q01DX015 (ip), vehicle: water) was 0 of 6.

CCCCCCCCCCCCCCCCSC(=N)N was tested, and the survivor count (dose: 400.0 mg/kg/injection, schedule: Q04DX003 (ip), vehicle: carboxymethylcellulose (CMC)) was 0 of 6.

With COc1cc(/C=C2\C(=O)C=C(C)CC2(C)C)ccc1O the survivor count [6] was 6 of 6 and the survivor count (dose: 400.0 mg/kg/injection, schedule: Q04DX003 (ip), vehicle: saline with Tween-80) was 6 of 6.

With CCCCCCCC(=O)N(CC(C)C)CC(C)C the survivor count (dose: 100.0 mg/kg/injection, schedule: Q01DX009 (ip), vehicle: carboxymethylcellulose (CMC)) was 3 of 3 and the survivor count [4] was 3 of 3 and 6 of 6.
